Experimental data from publication PMC11925395.
These are yes or no findings as the source states them, for the method shown. Binding seen in cells or lysates may run through a third protein. Some binding calls cover weakened binding; strength is not graded here. For some of these results: Sequences can lack the tags named with a protein.

Amino acid sequences for entries named in this document (tags omitted).
UniProt Q96H55: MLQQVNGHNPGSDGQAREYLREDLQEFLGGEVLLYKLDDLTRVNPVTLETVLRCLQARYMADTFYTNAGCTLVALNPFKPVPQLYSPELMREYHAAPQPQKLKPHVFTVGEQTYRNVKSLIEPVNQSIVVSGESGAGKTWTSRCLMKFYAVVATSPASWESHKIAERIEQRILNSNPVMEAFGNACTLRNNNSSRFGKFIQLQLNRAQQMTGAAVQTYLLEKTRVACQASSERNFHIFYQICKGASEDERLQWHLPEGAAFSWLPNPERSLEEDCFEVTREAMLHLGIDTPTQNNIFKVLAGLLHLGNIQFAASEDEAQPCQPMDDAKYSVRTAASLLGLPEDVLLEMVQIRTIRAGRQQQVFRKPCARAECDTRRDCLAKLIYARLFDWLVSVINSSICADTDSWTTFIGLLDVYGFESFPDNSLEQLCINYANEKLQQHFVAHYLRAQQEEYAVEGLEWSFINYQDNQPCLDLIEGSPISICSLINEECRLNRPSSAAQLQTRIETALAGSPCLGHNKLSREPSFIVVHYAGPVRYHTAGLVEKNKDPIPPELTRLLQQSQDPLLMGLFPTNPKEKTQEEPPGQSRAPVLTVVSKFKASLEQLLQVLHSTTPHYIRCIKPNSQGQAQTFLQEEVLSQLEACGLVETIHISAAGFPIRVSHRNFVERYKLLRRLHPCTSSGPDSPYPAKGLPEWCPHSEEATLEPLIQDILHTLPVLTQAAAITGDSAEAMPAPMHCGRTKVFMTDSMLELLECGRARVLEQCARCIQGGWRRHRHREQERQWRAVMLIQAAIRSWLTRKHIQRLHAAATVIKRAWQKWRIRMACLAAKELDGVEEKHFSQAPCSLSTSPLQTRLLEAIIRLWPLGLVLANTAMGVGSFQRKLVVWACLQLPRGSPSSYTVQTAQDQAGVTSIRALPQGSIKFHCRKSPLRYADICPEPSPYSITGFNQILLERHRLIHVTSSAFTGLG
UniProt Q8IXI1: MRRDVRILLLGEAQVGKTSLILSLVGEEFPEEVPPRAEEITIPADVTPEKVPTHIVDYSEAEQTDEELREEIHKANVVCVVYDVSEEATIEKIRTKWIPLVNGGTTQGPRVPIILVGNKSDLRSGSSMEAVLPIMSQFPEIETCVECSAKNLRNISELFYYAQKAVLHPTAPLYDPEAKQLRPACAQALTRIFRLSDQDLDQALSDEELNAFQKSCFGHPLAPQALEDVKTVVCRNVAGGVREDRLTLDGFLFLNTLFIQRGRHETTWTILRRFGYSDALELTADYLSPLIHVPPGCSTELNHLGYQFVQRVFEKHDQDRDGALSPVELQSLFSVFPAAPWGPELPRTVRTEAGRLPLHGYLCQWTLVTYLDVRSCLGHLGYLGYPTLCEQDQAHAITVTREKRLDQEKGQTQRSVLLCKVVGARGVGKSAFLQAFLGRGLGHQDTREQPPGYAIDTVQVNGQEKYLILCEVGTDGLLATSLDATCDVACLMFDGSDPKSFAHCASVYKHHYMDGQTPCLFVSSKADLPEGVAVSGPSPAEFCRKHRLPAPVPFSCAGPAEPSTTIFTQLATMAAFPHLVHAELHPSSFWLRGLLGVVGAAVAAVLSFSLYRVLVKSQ

T1: Halo–Miro1–VAMP1B tail (UniProt Q8IXI2)
T1 sequence: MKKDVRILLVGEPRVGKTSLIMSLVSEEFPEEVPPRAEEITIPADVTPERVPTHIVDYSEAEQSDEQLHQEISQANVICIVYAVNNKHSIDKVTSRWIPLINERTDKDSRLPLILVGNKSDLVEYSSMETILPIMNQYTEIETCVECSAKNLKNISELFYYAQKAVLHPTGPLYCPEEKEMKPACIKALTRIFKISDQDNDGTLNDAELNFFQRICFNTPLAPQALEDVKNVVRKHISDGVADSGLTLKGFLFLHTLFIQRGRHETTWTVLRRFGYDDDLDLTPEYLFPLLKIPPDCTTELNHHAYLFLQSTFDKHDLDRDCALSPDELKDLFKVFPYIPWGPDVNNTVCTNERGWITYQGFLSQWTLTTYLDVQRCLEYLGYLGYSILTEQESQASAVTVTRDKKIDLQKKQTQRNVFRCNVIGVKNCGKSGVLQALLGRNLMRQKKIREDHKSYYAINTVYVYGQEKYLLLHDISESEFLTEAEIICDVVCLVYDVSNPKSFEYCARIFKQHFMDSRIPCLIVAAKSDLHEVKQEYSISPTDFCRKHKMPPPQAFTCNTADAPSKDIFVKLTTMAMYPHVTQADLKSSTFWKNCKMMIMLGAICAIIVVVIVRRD

T2: Mtx3–FLAG (human) (UniProt Q5HYI7)
T2 sequence: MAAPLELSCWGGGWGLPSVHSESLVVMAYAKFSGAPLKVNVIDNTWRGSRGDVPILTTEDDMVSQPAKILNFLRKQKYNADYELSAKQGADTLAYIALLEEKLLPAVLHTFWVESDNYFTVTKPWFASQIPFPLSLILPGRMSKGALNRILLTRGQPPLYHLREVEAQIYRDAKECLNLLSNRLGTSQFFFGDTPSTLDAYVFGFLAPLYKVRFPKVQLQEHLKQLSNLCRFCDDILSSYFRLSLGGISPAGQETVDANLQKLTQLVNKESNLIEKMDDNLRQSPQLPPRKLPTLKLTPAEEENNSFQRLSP


What was measured:
Myo19–FLAG [1] = molecular target: Myo19–FLAG (UniProt Q96H55); assay: co-IP; anti-FLAG agarose affinity purification of Myo19–FLAG from Mtx3 KO cells (absence of Mtx3); eluted with FLAG peptide; immunoblot
Halo–Miro1 (human) = Halo–Miro1 (human) (UniProt Q8IXI2); assay: co-IP; Halo-Trap agarose pull-down from lysates of Miro DKO cells stably expressing Halo-tagged Miro constructs; inputs and eluates analysed by western blot
Halo–Miro1–VAMP1B tail = molecular target: T1, Halo–Miro1–VAMP1B tail; assay: as above
[2] = molecular target: Halo–Miro2 (aa 1–592)–Bcl-xL (UniProt Q8IXI1); assay: as above
Halo–Miro2 (human) = Halo–Miro2 (human) (UniProt Q8IXI1); assay: as above
Mtx3–FLAG (human) = molecular target: T2, Mtx3–FLAG (human); assay: co-IP; anti-FLAG agarose affinity purification from lysates of cells stably expressing Myo19–FLAG (HeLa) or Mtx3–FLAG (Mtx3 KO cells); lysis buffer 150 mM NaCl, 20 mM HEPES pH 7.4, 2 mM MgCl2, 1 mM EGTA, 0.5% Triton X-100, 2 mM ATP; 2 h at 4°C; eluted with FLAG peptide; immunoblot
Myo19–FLAG [3] = molecular target: Myo19–FLAG (UniProt Q96H55); assay: as above

binding (Myo19–FLAG [1]) | binding (Halo–Miro1 (human)) | binding (Halo–Miro1–VAMP1B tail) | binding [2] | binding (Halo–Miro2 (human)) | binding (Mtx3–FLAG (human)) | binding (Myo19–FLAG [3]) | Binder
binds weakly | binds | binds | binds | binds | binds | binds | Sam50, endogenous (protein, UniProt Q9Y512 1-469) MGTVHARSLEPLPSSGPDFGGLGEEAEFVEVEPEAKQEILENKDVVVQHVHFDGLGRTKDDIIICEIGDVFKAKNLIEVMRKSHEAREKLLRLGIFRQVDVLIDTCQGDDALPNGLDVTFEVTELRRLTGSYNTMVGNNEGSMVLGLKLPNLLGRAEKVTFQFSYGTKETSYGLSFFKPRPGNFERNFSVNLYKVTGQFPWSSLRETDRGMSAEYSFPIWKTSHTVKWEGVWRELGCLSRTASFAVRKESGHSLKSSLSHAMVIDSRNSSILPRRGALLKVNQELAGYTGGDVSFIKEDFELQLNKQLIFDSVFSASFWGGMLVPIGDKPSSIADRFYLGGPTSIRGFSMHSIGPQSEGDYLGGEAYWAGGLHLYTPLPFRPGQGGFGELFRTHFFLNAGNLCNLNYGEGPKAHIRKLAECIRWSYGAGIVLRLGNIARLELNYCVPMGVQTGDRICDGVQFGAGIRFL
 |  | no binding | no binding |  |  | binds | metaxin 3 (Mtx3), endogenous (protein, UniProt Q5HYI7 1-312) MAAPLELSCWGGGWGLPSVHSESLVVMAYAKFSGAPLKVNVIDNTWRGSRGDVPILTTEDDMVSQPAKILNFLRKQKYNADYELSAKQGADTLAYIALLEEKLLPAVLHTFWVESDNYFTVTKPWFASQIPFPLSLILPGRMSKGALNRILLTRGQPPLYHLREVEAQIYRDAKECLNLLSNRLGTSQFFFGDTPSTLDAYVFGFLAPLYKVRFPKVQLQEHLKQLSNLCRFCDDILSSYFRLSLGGISPAGQETVDANLQKLTQLVNKESNLIEKMDDNLRQSPQLPPRKLPTLKLTPAEEENNSFQRLSP
